Assay results published in patent US5336485A, “Method for protecting animals against tacrine induced cytotoxic injury using sterol compounds” (priority 1993, dated 1994).
For at least one compound, name, drawing or mass did not settle the structure.

Test system: liver
Assay: CCl4 induced hepatotoxicity in rats (serum AST/ALT)
Assay type: in vivo, rat
Conditions: serum enzyme levels
Procedure: In vivo experiments were performed to determine if alpha-TS administration protects the liver from chemical toxicity. The liver is the target organ for CCl4. CCl4 is a hepatotoxic agent that induces centrilobular liver necrosis through its metabolism to free radicals. Male Sprague-Dawley rats were given an intraperitoneal dose (100 mg/kg) of a tocopherol analog 24 hours prior to a CCl4 challenge (2.9g/kg given by oral garage). Forty eight hours after the challenge, the rats were sacrificed and the levels of aspartate aminotransferase (AST) and alanine aminotransferase (ALT) were measured.
As discussed above, SGOT levels provide a clinical assessment of hepatotoxicity (liver damage).
Succinate analogs were administered to male Sprague-Dawley rats 20 hours prior to a 1 g CCl4 /kg body weight oral challenge and the AST and ALT serum enzyme levels were measured 48 hours after the challenge.
Similar to the experiments were described above, the ionizable congeners were administered to Sprague-Dawley rats by i.p. injection of a 100 mg ionizable congener/kg body weight dose 20 hours prior to oral administration of a 1 g/kg dose of CCl4, and the AST and ALT levels were measured 48 hours after the CCl4 challenge.

## CCCCC/C=C\C/C=C\CCCCCCCCOC(=O)CCC(=O)O [Linoleyl succinate]
  protection against CCl4 hepatotoxicity (in words): some cytoprotection
